Results deposited as PubChem BioAssay AID1259308 (NCATS, 2017).

- Test: 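Knock-downs that increase output of a recombinant reporter protein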 (primary screen)
- System: human HEK293 embryonic kidney cells stably expressing firefly luciferase (HEK-CMV-Luc2-Hygro)
- Reagents: single siRNA against human genes, 0.8 pmol siRNA per well
- Duration: 72 h
- Measured: 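Luciferase light (ONE-Glo) measured on one replicate plate set and viability (CellTiter-Glo) on the other, scaled to a negative control siRNA, with robust z-scores and luciferase per cell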
- Reading the numbers: total luciferase, z-score and total luciferase, % of control: higher = more reporter protein produced
- Hit rule: 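An siRNA counts as active if its total luciferase robust z-score exceeds 3; genes with two or more such siRNAs out of three were retested with fresh siRNAs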
- Calls: active = raised luciferase; inactive = no rise
Shown is an unselected part of about 59,000 reagents. About 1,510 of all reagents (2.6%) were called active. 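Calls use total luciferase alone and ignore viability, so some active siRNAs may act by altering cell number.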 Reagents against one gene are numbered here. Not all columns of the deposit are shown. No sequences are given here.

HLA-DQB1 (major histocompatibility complex, class II, DQ beta 1) #1 | total luciferase, z-score = -0.0246; total luciferase, % of control = 81.4; outcome = inactive
HLA-DQB1 (major histocompatibility complex, class II, DQ beta 1) #2 | total luciferase, z-score = -0.117; total luciferase, % of control = 79.6; outcome = inactive
HLA-DQB1 (major histocompatibility complex, class II, DQ beta 1) #3 | total luciferase, z-score = 2.02; total luciferase, % of control = 122; outcome = inactive
MMP20 (matrix metallopeptidase 20) #1 | total luciferase, z-score = 0.331; total luciferase, % of control = 88.5; outcome = inactive
MMP20 (matrix metallopeptidase 20) #2 | total luciferase, z-score = -0.682; total luciferase, % of control = 68.3; outcome = inactive
MMP20 (matrix metallopeptidase 20) #3 | total luciferase, z-score = 0.0281; total luciferase, % of control = 82.4; outcome = inactive
PPP1R26 (protein phosphatase 1 regulatory subunit 26) #1 | total luciferase, z-score = 1.7; total luciferase, % of control = 116; outcome = inactive
PPP1R26 (protein phosphatase 1 regulatory subunit 26) #2 | total luciferase, z-score = 0.891; total luciferase, % of control = 99.6; outcome = inactive
PPP1R26 (protein phosphatase 1 regulatory subunit 26) #3 | total luciferase, z-score = 1.57; total luciferase, % of control = 113; outcome = inactive

Continued, starting with the last 3 of the part before.
PPP1R26 (protein phosphatase 1 regulatory subunit 26) #1 | total luciferase, z-score = 1.7; total luciferase, % of control = 116; outcome = inactive
PPP1R26 (protein phosphatase 1 regulatory subunit 26) #2 | total luciferase, z-score = 0.891; total luciferase, % of control = 99.6; outcome = inactive
PPP1R26 (protein phosphatase 1 regulatory subunit 26) #3 | total luciferase, z-score = 1.57; total luciferase, % of control = 113; outcome = inactive
ARID3C (AT-rich interaction domain 3C) #1 | total luciferase, z-score = 0.406; total luciferase, % of control = 90; outcome = inactive
ARID3C (AT-rich interaction domain 3C) #2 | total luciferase, z-score = 1.67; total luciferase, % of control = 115; outcome = inactive
ARID3C (AT-rich interaction domain 3C) #3 | total luciferase, z-score = 0.865; total luciferase, % of control = 99.1; outcome = inactive
EIF1 (eukaryotic translation initiation factor 1) #1 | total luciferase, z-score = -0.2; total luciferase, % of control = 77.9; outcome = inactive
EIF1 (eukaryotic translation initiation factor 1) #2 | total luciferase, z-score = -0.12; total luciferase, % of control = 79.5; outcome = inactive
EIF1 (eukaryotic translation initiation factor 1) #3 | total luciferase, z-score = -0.699; total luciferase, % of control = 68; outcome = inactive
FBXO6 (F-box protein 6) #1 | total luciferase, z-score = -0.175; total luciferase, % of control = 78.4; outcome = inactive
FBXO6 (F-box protein 6) #2 | total luciferase, z-score = 0.951; total luciferase, % of control = 101; outcome = inactive
FBXO6 (F-box protein 6) #3 | total luciferase, z-score = -1.66; total luciferase, % of control = 48.8; outcome = inactive
CLDN2 (claudin 2) #1 | total luciferase, z-score = -1.1; total luciferase, % of control = 60; outcome = inactive
CLDN2 (claudin 2) #2 | total luciferase, z-score = -2.28; total luciferase, % of control = 36.6; outcome = inactive
CLDN2 (claudin 2) #3 | total luciferase, z-score = 2.39; total luciferase, % of control = 129; outcome = inactive
